According to the supplement of paper PMC4604168 (melanoma cell lines):
The other results are listed elsewhere or left out. Single values are uncertain, as repeats are few or missing.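 Cells were imaged in 1,536-well plates, and nuclei stained with an antibody against cleaved PARP were counted against all DNA-stained nuclei to give the apoptosis fraction. Screening doses were chosen to leave most cells alive, and resting and induced cleaved-PARP levels differ strongly between cell lines.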

Columns and labels:
Test in all cases: cleaved PARP positive nuclei fraction relative to DMSO control; melanoma cells; higher = more apoptosis
Conditions in all cases: library dose: low library concentration; 72 h
CBRC034 = test system: CBRC034 (line from a melanoma biopsy)
COLO792 = test system: COLO792
COLO800 = test system: COLO800
COLO829 = test system: COLO829
G361 = test system: G361
IPC-298 = test system: IPC-298
IST-MEL1 = test system: IST-MEL1
LB2518-MEL = test system: LB2518-MEL
LOXIMVI = test system: LOXIMVI

| Compound | cleaved PARP positive nuclei fraction (CBRC034) [%] | cleaved PARP positive nuclei fraction (COLO792) [%] | cleaved PARP positive nuclei fraction (COLO800) [%] | cleaved PARP positive nuclei fraction (COLO829) [%] | cleaved PARP positive nuclei fraction (G361) [%] | cleaved PARP positive nuclei fraction (IPC-298) [%] | cleaved PARP positive nuclei fraction (IST-MEL1) [%] | cleaved PARP positive nuclei fraction (LB2518-MEL) [%] | cleaved PARP positive nuclei fraction (LOXIMVI) [%] |
| --- | --- | --- | --- | --- | --- | --- | --- | --- | --- |
| COc1ccc(-c2ccc3c(N4CCOCC4)nc(N4C[C@@H](C)O[C@@H](C)C4)nc3n2)cc1CO + C/C(O)=C(\C#N)C(=O)Nc1cc(Br)ccc1Br [LFM-A13] (first compound 0.02 µM, partner dose 2 µM) | 41.3 | 99.3 | 10.6 | 113 | 122 | 45 | 253 | 167 | 44 |
| C[C@]1(c2nc3c(C(N)=O)cccc3[nH]2)CCCN1 [Veliparib] + C/C(O)=C(\C#N)C(=O)Nc1cc(Br)ccc1Br [LFM-A13] (first compound 1.4 µM, partner dose 2 µM) | 85.2 | 66.1 | 137 | 61 | 81.4 | 39.5 | 110 | 93.8 | 16.7 |
| C[C@@H]1CCN(C(=O)CC#N)C[C@@H]1N(C)c1ncnc2[nH]ccc12 + Cc1cc(SCc2sc(-c3ccc(C(F)(F)F)c(F)c3)nc2C)ccc1OCC(=O)O [GW0742] (first compound 1 µM, partner dose 2 µM) | 87 | 58.2 | 83.6 | 214 | 79.9 | 105 | 89.7 | 88.6 | 66.9 |
| C/C(O)=C(\C#N)C(=O)Nc1cc(Br)ccc1Br + O=C1NC(=O)/C(=C/c2ccc(-c3ccc(F)cc3O)o2)S1 [AS252424] (first compound 2 µM, partner dose 1 µM) | 76.2 | 73.3 | 143 | 89.2 | 62.1 | 36.4 | 23.1 | 83.8 | 30.4 |
| C[As](C)SC[C@H](NC(=O)CC[C@H](N)C(=O)O)C(=O)NCC(=O)O [Darinaparsin] + O=c1cc(-c2cccc3c2Sc2ccccc2S3)oc(N2CCOCC2)c1 [KU55933] (first compound 0.4 µM, partner dose 1 µM) | 209 | 104 | 97.4 | 74.3 | 23.9 | 77.8 | 56 | 73.6 | 69.8 |
| COc1ccc(-c2ccc3c(N4CCOCC4)nc(N4C[C@@H](C)O[C@@H](C)C4)nc3n2)cc1CO + O=C(Oc1ccc([N+](=O)[O-])cc1)N1CCC(C(O)(c2ccc3c(c2)OCO3)c2ccc3c(c2)OCO3)CC1 [JZL184] (first compound 0.02 µM, partner dose 1 µM) | 117 | 69.3 | 154 | 66.7 | 113 | 38.3 | 66.1 | 75.5 | 100 |
| OCCn1cc(-c2cnc3nnn(Cc4ccc5ncccc5c4)c3n2)cn1 + Cc1cc(SCc2sc(-c3ccc(C(F)(F)F)c(F)c3)nc2C)ccc1OCC(=O)O [GW0742] (first compound 1 µM, partner dose 2 µM) | 93.6 | 134 | 134 | 148 | 90.6 | 277 | 57.9 | 88.3 | 67.5 |
| Nc1cccc2c1CN(C1CCC(=O)NC1=O)C2=O (stereo unspecified) [lenalidomide] + C/C(O)=C(\C#N)C(=O)Nc1cc(Br)ccc1Br [LFM-A13] (first compound 1 µM, partner dose 2 µM) | 53.1 | 116 | 145 | 106 | 141 | 164 | 45.4 | 197 | 87.9 |
| C[As](C)SC[C@H](NC(=O)CC[C@H](N)C(=O)O)C(=O)NCC(=O)O [Darinaparsin] + CCc1ccc(CCOc2ccc(CC3SC(=O)NC3=O)cc2)nc1 [pioglitazone] (first compound 0.4 µM, partner dose 2 µM) | 88.1 | 55.2 | 37.7 | 95.6 | 71 | 39.6 | 29.4 | 88.6 | 74.1 |
| C[As](C)SC[C@H](NC(=O)CC[C@H](N)C(=O)O)C(=O)NCC(=O)O [Darinaparsin] + Cc1cc(SCc2sc(-c3ccc(C(F)(F)F)c(F)c3)nc2C)ccc1OCC(=O)O [GW0742] (first compound 0.4 µM, partner dose 2 µM) | 79.3 | 62.1 | 76.2 | 81.5 | 76 | 60.5 | 56.6 | 76.3 | 138 |
| Cn1c(Nc2ccc(C(F)(F)F)cc2)nc2cc(Oc3ccnc(-c4ncc(C(F)(F)F)[nH]4)c3)ccc21 + Cc1cc(SCc2sc(-c3ccc(C(F)(F)F)c(F)c3)nc2C)ccc1OCC(=O)O [GW0742] (first compound 0.08 µM, partner dose 2 µM) | 43.8 | 510 | 230 | 176 | 78.8 | 91.1 | 35.3 | 264 | 64.9 |
| Cc1cc(N2CCOCC2)cc2[nH]c(-c3c(NC[C@@H](O)c4cccc(Cl)c4)cc[nH]c3=O)nc12 + C/C(O)=C(\C#N)C(=O)Nc1cc(Br)ccc1Br [LFM-A13] (first compound 0.2 µM, partner dose 2 µM) | 43.8 | 141 | 119 | 115 | 185 | 209 | 127 | 77.2 | 69.5 |
| Cn1cncc1[C@@](N)(c1ccc(Cl)cc1)c1ccc2c(c1)c(-c1cccc(Cl)c1)cc(=O)n2C [tipifarnib] + O=C(Oc1ccc([N+](=O)[O-])cc1)N1CCC(C(O)(c2ccc3c(c2)OCO3)c2ccc3c(c2)OCO3)CC1 [JZL184] (first compound 0.01 µM, partner dose 1 µM) | 87.4 | 55.3 | 218 | 91.7 | 30 | 63.5 | 85.7 | 164 | 54.7 |
| C/C(O)=C(\C#N)C(=O)Nc1cc(Br)ccc1Br + Cn1cc(/C=C2\C(=O)Nc3cccnc32)c2ccccc21 [GW441756] (first compound 2 µM, partner dose 0.4 µM) | 80 | 172 | 78.5 | 163 | 148 | 90.9 | 59.2 | 75.4 | 64.5 |
| C[As](C)SC[C@H](NC(=O)CC[C@H](N)C(=O)O)C(=O)NCC(=O)O [Darinaparsin] + COc1ccc(COc2ccc(Cc3cnc(N)nc3N)cc2OC)cc1 [GW2580] (first compound 0.4 µM, partner dose 1 µM) | 123 | 71.3 | 28.5 | 68.2 | 74 | 56.6 | 115 | 163 | 92.5 |
| C[As](C)SC[C@H](NC(=O)CC[C@H](N)C(=O)O)C(=O)NCC(=O)O [Darinaparsin] + CC(C)CCN1c2nc(Nc3cc(F)c(O)c(F)c3)ncc2N(C)C(=O)C1C [BID1870] (first compound 0.4 µM, partner dose 0.2 µM) | 87.5 | 93.4 | 161 | 81.2 | 94.9 | 41.6 | 45.7 | 95.6 | 71.3 |
| Cc1cc(SCc2sc(-c3ccc(C(F)(F)F)c(F)c3)nc2C)ccc1OCC(=O)O + O=C(O)C(=O)Nc1sc2c(c1C(=O)O)CCNC2 [TCS401] (first compound 2 µM, partner dose 1.66667 µM) | 43.6 | 94.6 | 147 | 124 | 46.8 | 69.3 | 123 | 116 | 29.5 |
| O=C1NC(=O)/C(=C/c2ccc(-c3ccc(F)cc3O)o2)S1 + O=C(Oc1ccc([N+](=O)[O-])cc1)N1CCC(C(O)(c2ccc3c(c2)OCO3)c2ccc3c(c2)OCO3)CC1 [JZL184] (first compound 1 µM, partner dose 1 µM) | 84.6 | 105 | 99 | 145 | 195 | 126 | 58.8 | 81.9 | 80.5 |
| CN(C)S(=O)(=O)c1ccc2c(c1)/C(=C/c1cc3c([nH]1)CCCC3)C(=O)N2 + C/C(O)=C(\C#N)C(=O)Nc1cc(Br)ccc1Br [LFM-A13] (first compound 0.4 µM, partner dose 2 µM) | 113 | 73.9 | 131 | 195 | 65 | 43.2 | 234 | 170 | 55.4 |
| C[As](C)SC[C@H](NC(=O)CC[C@H](N)C(=O)O)C(=O)NCC(=O)O [Darinaparsin] + CCCCCCCCCCCC1=C(O)C(=O)C=C(O)C1=O [Embelin] (first compound 0.4 µM, partner dose 1.2 µM) | 82.4 | 140 | 62.2 | 153 | 52.2 | 54.6 | 118 | 86.8 | 26.9 |
| CN(NC(=O)CC(=O)NN(C)C(=S)c1ccccc1)C(=S)c1ccccc1 + C/C(O)=C(\C#N)C(=O)Nc1cc(Br)ccc1Br [LFM-A13] (first compound 0.006 µM, partner dose 2 µM) | 78.6 | 86.3 | 282 | 191 | 427 | 43.1 | 101 | 489 | 107 |
| O=C(CCCCCCC(=O)Nc1ccccc1)NO [vorinostat] + C/C(O)=C(\C#N)C(=O)Nc1cc(Br)ccc1Br [LFM-A13] (first compound 0.08 µM, partner dose 2 µM) | 132 | 68 | 105 | 33 | 71.2 | 117 | 84.9 | 42.8 | 40.8 |
| COc1cc2ncnc(Nc3ccc(Oc4ccccc4)cc3)c2cc1OC + C/C(O)=C(\C#N)C(=O)Nc1cc(Br)ccc1Br [LFM-A13] (first compound 2 µM, partner dose 2 µM) | 95.3 | 155 | 113 | 83.3 | 20.5 | 58.1 | 94.4 | 71.1 | 34.3 |
| NC(=O)Nc1cc(-c2cccc(F)c2)sc1C(=O)N[C@H]1CCCNC1 + Cc1cc(SCc2sc(-c3ccc(C(F)(F)F)c(F)c3)nc2C)ccc1OCC(=O)O [GW0742] (first compound 0.02 µM, partner dose 2 µM) | 96.7 | 60.8 | 135 | 97.5 | 130 | 73.5 | 25.2 | 190 | 107 |

A section from the list above, as a working copy:

| Compound | cleaved PARP positive nuclei fraction (CBRC034) [%] | cleaved PARP positive nuclei fraction (COLO792) [%] | cleaved PARP positive nuclei fraction (COLO800) [%] | cleaved PARP positive nuclei fraction (COLO829) [%] | cleaved PARP positive nuclei fraction (G361) [%] | cleaved PARP positive nuclei fraction (IPC-298) [%] | cleaved PARP positive nuclei fraction (IST-MEL1) [%] | cleaved PARP positive nuclei fraction (LB2518-MEL) [%] | cleaved PARP positive nuclei fraction (LOXIMVI) [%] |
| --- | --- | --- | --- | --- | --- | --- | --- | --- | --- |
| Cc1cc(SCc2sc(-c3ccc(C(F)(F)F)c(F)c3)nc2C)ccc1OCC(=O)O + O=C(O)C(=O)Nc1sc2c(c1C(=O)O)CCNC2 [TCS401] (first compound 2 µM, partner dose 1.66667 µM) | 43.6 | 94.6 | 147 | 124 | 46.8 | 69.3 | 123 | 116 | 29.5 |
| O=C1NC(=O)/C(=C/c2ccc(-c3ccc(F)cc3O)o2)S1 + O=C(Oc1ccc([N+](=O)[O-])cc1)N1CCC(C(O)(c2ccc3c(c2)OCO3)c2ccc3c(c2)OCO3)CC1 [JZL184] (first compound 1 µM, partner dose 1 µM) | 84.6 | 105 | 99 | 145 | 195 | 126 | 58.8 | 81.9 | 80.5 |
